Sequences and labels used below:
B1: Eukaryotic translation initiation factor 3 subunit f (SMAC_02708) (protein, UniProt F7VX88 1-370)
chain: MAVDQESFVHLARPLAPNVLGFGVSNAPLTVNIQPQAVFSIVDHAVRRDDRDTQATRVIGALVGVRSEDGSEVEVRSTFAIPHTENEDQVEVDVEYQKNMLALTLKASPRETLLGWYTTSHELNSFSALIQNFFASPETGTFPHPAVHLTIGTEAGAPIETKTYISAPVAVSPERAAESCLFIEVPHKLLFTDAERGALGSVAAAADVESRSAPVVSDIENLSQALETVSDLLERVSGFVGDVLDEERDGNHALGQYLMNALSLAPKVSNLAIENDFNNHIQDVLMVSYLANTIRTQIELSQRLATAKLDEGKEAGDKKEGEGAEGGDKKNDGQRGQRGQGGKRGGRGGGAGGRGGREQREPREPRESAE
B2: Duf1750 domain containing protein (SMAC_02833) (protein, UniProt F7VXL1 1-717)
chain: MAGDPSQNVHQDLLPHVHLLSTYRYAFQPRVELPEVTKWLTAAPKIARDTAPFFWTYLDCPNDGSIYLTWQPSGRRGVEFSSDGYIWSGPEIFYHQPAGNGLVLEAYIQRSGFRPGEQHTVHSRKRFRLVPGPAPVPNAPQVDPNLWIVHYGPADKQDRIHVQMVSVSPQMQQMINYRQQLFQMGQIVKKEFMLSDRVNWPQLPLPGRGQSMYAPPMPPRHIPPTMAYPPHPGAVAGSSKRRGGHGQAPGAHPNQMAGGQLHNLEGAFDDEEDVSRGDLFDHLTPREVSIARYQQNHEWMEEILSSPYQIGQIEVSDLGLGRKGALASLTEGIFEAQSTEAVDHGPKKPYTGHLAPGVADEFRKRVMEKNKADMEEIARMKAEHEKALASLRKNSTLMQAEQELRFAAQETGSEPWRLEGRLEDDEEGTSRQGQRNAGTIEEILASVEKLVGKPATVVHDVHRVEDGGYQESAPEPEPILPPAGQAPSMSRQPSQAGSQASGAIIGDSDIDMGGTAAGLLDQMNTAGGFSTTSTPQPLNLSANPSSAATPSAPNVASPLPPAGNQGGDDINMEDADAGASAKVATTASDQIPTASNPSGATTASVPQPPTTAGNSDAAGVAAQQITQPSSKPASAAPTPSGEGIDFSSLGDLDTAGEALAGYDPPSVGPGGDDLGDLNMDMEDSAFGDAFHGVSHSAGPDQSSPGAGLGSAGNTPPV
B3: 60 s ribosomal protein l27e (SMAC_02509) (protein, UniProt F7VPS7 1-135)
chain: MKFLKTSRVCLVTRGRYAGKKVVIIQPVDNGSKTHPYGHAIVAGIERYPSKITRRMSKTRQEKRSKVKPFIKVINYNHLMPTRYTLELEGLKGSVSAETFKEVSQREDAKKTVKKVLEERYTSGKNRWFFTPLRF
B4: Oligopeptide transporter (SMAC_03063) (protein, UniProt F7VUC0 1-886)
chain: MATTRDEKAVNITPAGSDQPPALSEKYDEKVGGVHEIGLDRIDSEEAQVIEGHLDVTEEDLLQAKAVAESLSLKDVVKLMKHVVGMHGRDPNFPHVVLEKIQEFLANEENILANPEKHHDIITEMKIEAALIQSNSPYAEVRAVVDNTDDPSTPCSTVRSWTIGILFSVILAFVNQLFSVRQPSISIESNVAQLLAFPLGKAWEKWMPYYEFTLFGTKHNLNPGKFSKKEHMLIAIMANTAKSLPYTQYIVWTQVLPQYFNQSYANSFAYQILIALSTNFIGYGLAGITRRFIVYPSYCVWPASLVTIALNSALHHEENHTVPGPFKKLYSMSRFKFFMWAFGAMFVYFWFPNYLFEALTFFSWMTWIAPNNLNLNILTGFQNGTGMFNPFPTFDWNVMLFDAVDPLMVPAFTTFNKTAGMAFFGFIILGLWYTNVWNTGYLPINSNRVFDHYGSLYNVSRAIDEKGMFDAEKYMDYSAAYLSAANTIVYFAFFAIYAATISHIILFHRAEIAIGFRNIWKSVKPKRWIKRNAAGESLEEEDVGYKDVHNRLMAVYPEVSELWYFGCLVIAMALGFAGVAAWPTYTTAGVVPYGLFLAIIFVIPIGIIKAMTGIEVTLNVLAEFIGGAWVEGNALAMNFFKSFGYVTCAHAISFANDLKLAHYIKIPPRHTFTAQMVATLISTFICTGVLNFQVNIENICQPNAPMRFFCPGINTFFTAAVLWGTIGPVKVFGVHGQYKWLLLGFPIGLCIPIIFWLIIRKFPRNKFIRQFHPVALFYGGLNWAPYSMSYCWPAVPIAWLSWIYVRNRYLAFWSKYNFVLSAAFSAGIAVAGIVMLFSVQWARVSVEWWGNEQPYKGCEDTACTIKTLSEGERFFPWWDANKVPAP
B5: Xpg i-region protein (SMAC_02537) (protein, UniProt F7VWR6 1-745)
chain: MPVNFEDPWFKAQEVSYNVSELQDCAVAVDASYFLRQLLEQAENYNEPLLTALGGLTGIQARIQVELDNWLRNRTTPFFIFDGQPMVGQDEVTTKQGREIQKQTGVAWKLYSEGQAEAAVAAFGECASLYNIQALYPMLQDELRLRKLHFLVAPFNAAAQIAYLDMIDSDQCGGIMGPLELMLYPIQDCVIRSIEWTSNTCAAISKKNVMKVLNVSEPHFIDAFLMTGTPFLPPFPPLTDPTLVKSQPYNIVDAINMLRTADKSVTMVSTTFHDLIKNQDPTWLDKYRKAWMAVKHFVYIAESGVVKVHDADHLTNDNHEYLGLQIPWEMFHYLNAGLIGPRLLSWITHSQVYVLPTLDGSATEEYKKLVSSQLVPLEETALSLVLARLHRGIVYKDIKAKVWYDDNYSGTVLDHRHEARTKTNYGVQMATWGVIKEADIKQHFPGFEHGSIFSEVHALTKPDFVKLTFAKQENKLRNVESASVIKSICLWRYLHVRGYIDDQHNLTNWGKALDRAMVTLEPAVKKFPTVPYLYESVLVAMEMVRFGLLNGSLKVVEPLSLPMHGDDDDKSSLMLISRCATLLKLRHQANGYTGPLSKNLLTFHSLAGEVRSAERALMEAILASLFLYGQGQRKRDDSWELSHQLPFLFNPDVALGIAVKTYFDETINWKSEKEKTERLATFPDLFVPYSMAFSEDLEIACEFFKAVYAGLQTLDGQGISANDLKAWSKAKEYLSPRTLKDASGN
B6: Hsp70 family protein (SMAC_01267) (protein, UniProt F7VQB8 1-701)
chain: MSFSNSRLKGFGFGKRKSTASIQPNPDQQQSPTLPPGAAPQLPQLFQSRPGPAPSVASNSSQQSLPQMNHPGAGPRPPSYSANYPPGPPGPVGRTSPLTNQGPTRTPPSQMVGGPPPINTGAPPVSGYPPPVNMGGGPPPLQGGPPGYAGAQGYPPPPQPTGPVAPYRGNAAAEVEGNSRSKAQLIVGIDFGTTFSGVAFAFATNNEAKEDIITEWPGAGSYTKQKIPTVLYYDQYQKVVGWGPDIADALAPTGYPKPGVQKVEWFKLQLMLSGNTYIDPINLPPLPPGKSEIDVAADYLFKLRQAMRAALQKTLGEVFNREERNIRYYLTVPAIWNDAGKAATRAAAIQAGFLRDENDNRLTLVSEPEAAALFCSKTGLLNLKVHDAVLIVDCGGGTVDLIAYEVEDENPFTVAECTAGSGDSCGSTALNRNFSNILRTKIRKMKLPDGSKTAGRVYAKCIMDFENRIKADFRNNGQKWAVDVGIEAEFPEAGIEEGYMTFTNEEILQCFEPVVNRILELVRNQIIAIQAQNRTLQNILVVGGFGASEYLFQQIKLHVPPQFQSKVVRPMDSVAAIVKGAVTAGITERVITHRVARRHYLMATLQPFKEGYHPEAYRVPSLDGKDRCKFTRQIFVQKGQKVKIGEPVKVSFFRQVAPGATLMYEDILYACDDDVCPEYTKDPSKSLALLFDHGRILTVWK

Sequences of proteins named here, by UniProt entry; tags and fusion partners are left off. A change or cut given only in a name is not applied to a line headed by its entry.
UniProt F7VLP8: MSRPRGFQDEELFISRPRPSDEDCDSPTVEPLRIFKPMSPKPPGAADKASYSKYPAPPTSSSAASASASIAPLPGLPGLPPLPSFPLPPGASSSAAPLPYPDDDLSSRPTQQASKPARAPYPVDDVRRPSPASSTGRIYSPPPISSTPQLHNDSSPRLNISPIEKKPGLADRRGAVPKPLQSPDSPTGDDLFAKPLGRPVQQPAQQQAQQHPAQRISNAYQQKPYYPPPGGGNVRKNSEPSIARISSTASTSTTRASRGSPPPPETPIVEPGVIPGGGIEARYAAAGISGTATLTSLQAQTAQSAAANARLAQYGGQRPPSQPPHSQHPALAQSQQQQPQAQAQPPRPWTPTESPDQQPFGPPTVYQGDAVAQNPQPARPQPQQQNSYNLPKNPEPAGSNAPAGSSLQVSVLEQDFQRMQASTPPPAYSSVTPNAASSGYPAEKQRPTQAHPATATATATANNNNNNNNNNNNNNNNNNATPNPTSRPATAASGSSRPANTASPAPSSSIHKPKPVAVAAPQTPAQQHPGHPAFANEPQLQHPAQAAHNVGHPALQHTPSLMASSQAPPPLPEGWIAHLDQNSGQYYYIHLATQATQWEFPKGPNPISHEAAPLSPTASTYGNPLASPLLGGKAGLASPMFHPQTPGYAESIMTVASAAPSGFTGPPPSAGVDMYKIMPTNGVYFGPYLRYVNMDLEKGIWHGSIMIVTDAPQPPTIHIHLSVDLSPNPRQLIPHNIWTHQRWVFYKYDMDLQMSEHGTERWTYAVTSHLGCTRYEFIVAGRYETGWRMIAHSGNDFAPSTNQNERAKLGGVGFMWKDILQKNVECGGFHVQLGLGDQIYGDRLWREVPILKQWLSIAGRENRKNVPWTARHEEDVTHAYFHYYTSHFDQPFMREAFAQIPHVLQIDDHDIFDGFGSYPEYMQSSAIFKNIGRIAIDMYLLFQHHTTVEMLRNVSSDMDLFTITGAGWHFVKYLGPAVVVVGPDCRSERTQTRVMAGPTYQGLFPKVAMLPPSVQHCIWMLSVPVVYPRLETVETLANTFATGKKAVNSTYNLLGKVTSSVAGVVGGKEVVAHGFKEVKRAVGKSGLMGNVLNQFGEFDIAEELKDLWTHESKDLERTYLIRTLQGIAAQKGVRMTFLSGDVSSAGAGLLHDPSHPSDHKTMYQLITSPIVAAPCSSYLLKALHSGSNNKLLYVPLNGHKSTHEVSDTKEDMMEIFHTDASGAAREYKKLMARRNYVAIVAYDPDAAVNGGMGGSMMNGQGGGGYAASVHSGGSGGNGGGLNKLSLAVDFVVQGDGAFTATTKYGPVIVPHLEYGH

No constants are given. Whether binding was seen depends on the method and setting. In cells and extracts the contact can be indirect. These calls come from enrichment with a bait or labelling near it, and not all partners need be listed.

This assay deals with PRO40-FLAG (Sordaria macrospora) (UniProt F7VLP8). Put plainly: affinity purification with mass spectrometry; FLAG-AP with MudPIT of PRO40-FLAG from strain T184.2NS11 (Δpro40::pro40-3xFLAG) on anti-FLAG M2 gel, 250 mM NaCl extraction, 150 mM NaCl washes, 3xFLAG peptide elution; wildtype extract as control.
For B1, the binding entry was “binds”.

Take B2: the binding result is “binds”.

For B3, the binding result is “binds”.

Turning to B4, the binding result was “binds”.

For the molecule B5, the binding result is recorded as “binds”.

Regarding B6, the binding entry is “binds”.
